The text below walks through data of PMC6675780, “Monitoring activities of receptor tyrosine kinases using a universal adapter in genetically encoded split TEV assays” (Cellular and Molecular Life Sciences: CMLS, 2019).

Protein sequences, listed by entry. Tags and fused reporters are not part of them. Residues count along the entry.
UniProt P08069, residues 31-1367: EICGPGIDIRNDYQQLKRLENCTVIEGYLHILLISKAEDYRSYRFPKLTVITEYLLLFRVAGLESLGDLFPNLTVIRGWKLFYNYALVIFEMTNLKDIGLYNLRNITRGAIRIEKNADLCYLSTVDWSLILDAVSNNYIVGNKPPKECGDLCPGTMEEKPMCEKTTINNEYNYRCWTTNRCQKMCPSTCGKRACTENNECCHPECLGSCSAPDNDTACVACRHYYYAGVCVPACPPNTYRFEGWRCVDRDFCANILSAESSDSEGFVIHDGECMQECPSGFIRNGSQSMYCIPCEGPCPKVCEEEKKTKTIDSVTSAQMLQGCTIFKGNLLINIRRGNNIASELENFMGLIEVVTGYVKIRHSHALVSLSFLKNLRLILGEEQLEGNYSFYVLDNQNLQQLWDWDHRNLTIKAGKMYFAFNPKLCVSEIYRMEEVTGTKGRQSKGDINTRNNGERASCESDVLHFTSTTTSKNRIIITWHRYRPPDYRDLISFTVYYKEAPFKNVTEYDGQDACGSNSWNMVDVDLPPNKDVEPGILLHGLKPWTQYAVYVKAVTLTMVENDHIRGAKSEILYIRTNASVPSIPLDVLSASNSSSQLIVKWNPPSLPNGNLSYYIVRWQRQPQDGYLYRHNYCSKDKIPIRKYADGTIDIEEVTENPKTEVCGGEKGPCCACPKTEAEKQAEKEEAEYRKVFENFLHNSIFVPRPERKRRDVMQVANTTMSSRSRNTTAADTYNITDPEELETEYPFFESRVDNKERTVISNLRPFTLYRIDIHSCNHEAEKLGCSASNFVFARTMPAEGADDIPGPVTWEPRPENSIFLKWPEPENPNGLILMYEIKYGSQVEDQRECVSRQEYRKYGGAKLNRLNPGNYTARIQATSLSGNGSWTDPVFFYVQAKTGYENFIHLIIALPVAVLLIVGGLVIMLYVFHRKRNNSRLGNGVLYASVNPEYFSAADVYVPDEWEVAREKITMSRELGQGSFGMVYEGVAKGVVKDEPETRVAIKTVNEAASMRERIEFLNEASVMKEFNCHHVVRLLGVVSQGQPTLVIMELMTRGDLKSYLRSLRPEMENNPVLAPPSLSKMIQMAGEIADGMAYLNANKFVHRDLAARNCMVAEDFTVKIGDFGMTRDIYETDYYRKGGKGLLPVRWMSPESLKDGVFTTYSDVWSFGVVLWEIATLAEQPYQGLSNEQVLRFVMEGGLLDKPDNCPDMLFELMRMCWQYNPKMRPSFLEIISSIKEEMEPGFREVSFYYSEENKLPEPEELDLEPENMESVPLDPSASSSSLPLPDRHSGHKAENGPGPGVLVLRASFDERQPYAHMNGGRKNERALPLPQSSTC

Assay [1] addresses IGF1R-NTEV-tcs-GV-2HA (insulin growth factor 1 receptor fused to the NTEV-tcs-GV tag) (UniProt P08069). In words: split reporter; split TEV recruitment end-point assay in living PC12 cells, 96-well; receptor-NTEV-tcs-GV and adapter-CTEV plasmids with a 10xUAS-minCMVp firefly luciferase reporter; cells starved 16-20 h, stimulated 16 h with EGF (30 ng/ml), EGFld (10 ng/ml), IGF1 (100 ng/ml) or HGF (100 ng/ml) or left non-stimulated; ERBB2-V5 co-transfected for ERBB3.

Assay [2] shares this target. The experiment in a line: split reporter; split TEV recruitment assay in dose-response format in living PC12 cells; increasing concentrations of agonist (EGF, EGFld, IGF1, HGF) at semi-logarithmic scale, or increasing antagonist (lapatinib, WZ4002 and others) followed 1 h later by a constant agonist; firefly luciferase read-out, Renilla control; ERBB2-V5 co-transfected for ERBB3.

No constants are given. Whether binding was seen depends on the method and setting. Binding seen in cells or lysates may run through a third protein. Some entries that bind do so weakly or less than the wild type.

In the case of “SH2(GRB2)-CTEV-2HA (artificial adapter of three concatenated SH2 domains of GRB2, fused to CTEV) (from UniProt P62993 60-152; P62993 60-152; P62993 60-152) (designed binder)”, the binding entry in assay [1] and in assay [2] was “binds” throughout.
